Results are given in words; binding and its absence hold for the method and conditions named. In cells and extracts the contact can be indirect. Binding calls can cover weak binding; strength is not graded here. Sequences can lack the tags named with a protein.
Target: T1, CsHydr1-myc (Colletotrichum siamense)
T1 sequence: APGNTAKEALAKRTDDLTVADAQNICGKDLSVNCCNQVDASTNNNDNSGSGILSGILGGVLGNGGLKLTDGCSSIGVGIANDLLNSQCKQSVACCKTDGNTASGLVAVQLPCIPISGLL
Experiment: co-IP; total proteins of C. siamense HN08 transformant coexpressing CsHydr1-myc and GFP-CsCap20; immunoprecipitation and western blot; control transformant with CsHydr1-myc only

## GFP-CsCap20 (Colletotrichum siamense)
  binding: binds

From article PMC9502314
